# Data reported in PubChem BioAssay AID504834 (National Center for Advancing Translational Sciences (NCATS), 2011).
# Out of some 320,000 compounds screened, about 22,000 (6.9%) were called active. The inconclusive results got no clear call from the source; some entries with a clear call stand among them for comparison. The call rests on the fitted dose curve; in most records, active means well fitted inhibition curve with a large enough effect; inconclusive means small, poorly fitted or top-dose-only effect, or another doubt; inactive means no such curve, though single readings can be large or run the other way. A potency beside an inconclusive call is a rough fit, not a confirmed value.
# Assay: Primary qHTS for delayed death inhibitors of the malarial parasite plastid, 96 hour incubation
# Conditions: P. falciparum luciferase reporter growth; series mostly up to 28.7 µM; activity change, negative = inhibition: at the top concentration
# Method in brief: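 P. falciparum expressing integrated firefly luciferase grown in erythrocytes (2% hematocrit, 0.05% parasitemia final) with compounds for 96 hours at 37 C, 5% CO2. Growth inhibition read as loss of luminescence after adding luciferase detection reagent.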
# On the % scale 0 is the no-effect control and ±100 the full control effect; potency means the concentration at half of the fitted maximal effect.
SMILES,Potency,"activity change, negative = inhibition"
CC1CN(C(=O)/C=C/c2ccc([N+](=O)[O-])s2)CC(C)O1 (configuration not stated),"inconclusive: 1.47 µM [inhibitor, full curve, poor fit]",–
O=C1C=C(O)CC(c2cccs2)C1 (configuration not stated),"inconclusive: 10.4 µM [inhibitor, single point]",–
O=C(O)/C(=C\c1cccs1)c1ccccc1,"inconclusive: 18.5 µM [inhibitor, partial curve, poor fit]",–
COc1ccc(-c2csc(Nc3ncccc3C)n2)cc1OC,"inconclusive: 11.7 µM [inhibitor, single point]",–
NC(=O)c1cc(NC(=O)CCCc2nc3ccccc3s2)cc(C(N)=O)c1,–,inactive: 0%
Cc1nc2sc(C(c3ccc(Cl)cc3)N3CC(C)OC(C)C3)c(O)n2n1 (configuration not stated),"inconclusive: 3.7 µM [inhibitor, full curve]",–
CCCCn1c(CCC(=O)O)nc2cc(S(=O)(=O)N(C)C)ccc21,"inconclusive: 0.329 µM [inhibitor, full curve, poor fit]",–
COc1ccc(C(=O)NCCc2ccc(S(N)(=O)=O)cc2)cc1OC,"inconclusive: 10.4 µM [inhibitor, single point]",–
COc1ccc(C(CC(=O)N2CCCCC2)NC(=O)C(F)(F)F)cc1 (configuration not stated),–,inactive: -22.5%
O=C1c2ccccc2C(=O)N1CCc1csc(-c2ccccc2)n1,–,inactive: 46.2%
Cc1cc(NC(=O)/C=C/c2ccc(Br)cc2)no1,"inconclusive: 18.5 µM [inhibitor, single point]",–
CCOc1ccccc1OCCC(=O)OCC(=O)Nc1c(C)cc(C)cc1C,–,inactive: -3.16%
Cc1cccc(NS(=O)(=O)c2cc(Cl)ccc2Cl)n1,active: 2.94 µM,–
COc1ccc2cc(CO)c(Cl)nc2c1,–,inactive: -10.6%
COCCCn1c(=O)c2sccc2n2c(CCCC(=O)NCC3CCCO3)nnc12 (configuration not stated),"inconclusive: 18.5 µM [inhibitor, single point]",–
O=C(COC(=O)c1ccco1)NCc1ccccc1Cl,–,inactive: 10.7%
COc1ccccc1OCc1ccc(C(=O)Nc2ccncc2)o1,–,inactive: -50%
CCCn1c(N)c(C(c2ccc(OC)cc2)N2CCN(c3ccccc3)CC2)c(=O)[nH]c1=O (configuration not stated),"inconclusive: 9.28 µM [inhibitor, single point]",–
COc1ccc2cc(C(=O)C3CCCN(C(=O)c4csnn4)C3)ccc2c1 (configuration not stated),"inconclusive: 18.5 µM [inhibitor, single point]",–
O=C(c1ccc2c(c1)OCCO2)N(c1ccccn1)C1CCCCC1,"inconclusive: 11.7 µM [inhibitor, partial curve]",–
O=C(COc1ccc2c3c(c(=O)oc2c1)CCC3)NCCCN1CCCC1=O,"inconclusive: 13.1 µM [inhibitor, single point]",–
COc1cccc(-c2nnc(SCc3ccc(C#N)cc3)n2Cc2ccco2)c1,–,inactive: 0.592%
O=C(Cn1c(C(=O)NCCCN2CCOCC2)cc2sccc21)c1ccccc1,"inconclusive: 11.7 µM [inhibitor, partial curve, poor fit]",–
N/C(=N\OC(=O)COc1ccc2ccccc2c1)c1ccccn1,–,inactive: 87.5%

# Part of the list above in order of SMILES length, low to high.
SMILES,Potency,"activity change, negative = inhibition"
O=C1C=C(O)CC(c2cccs2)C1 (configuration not stated),"inconclusive: 10.4 µM [inhibitor, single point]",–
COc1ccc2cc(CO)c(Cl)nc2c1,–,inactive: -10.6%
O=C(O)/C(=C\c1cccs1)c1ccccc1,"inconclusive: 18.5 µM [inhibitor, partial curve, poor fit]",–
O=C(COC(=O)c1ccco1)NCc1ccccc1Cl,–,inactive: 10.7%
Cc1cc(NC(=O)/C=C/c2ccc(Br)cc2)no1,"inconclusive: 18.5 µM [inhibitor, single point]",–
COc1ccc(-c2csc(Nc3ncccc3C)n2)cc1OC,"inconclusive: 11.7 µM [inhibitor, single point]",–
COc1ccccc1OCc1ccc(C(=O)Nc2ccncc2)o1,–,inactive: -50%
N/C(=N\OC(=O)COc1ccc2ccccc2c1)c1ccccn1,–,inactive: 87.5%
O=C1c2ccccc2C(=O)N1CCc1csc(-c2ccccc2)n1,–,inactive: 46.2%
O=C(c1ccc2c(c1)OCCO2)N(c1ccccn1)C1CCCCC1,"inconclusive: 11.7 µM [inhibitor, partial curve]",–
CCOc1ccccc1OCCC(=O)OCC(=O)Nc1c(C)cc(C)cc1C,–,inactive: -3.16%
CCCCn1c(CCC(=O)O)nc2cc(S(=O)(=O)N(C)C)ccc21,"inconclusive: 0.329 µM [inhibitor, full curve, poor fit]",–
O=C(Cn1c(C(=O)NCCCN2CCOCC2)cc2sccc21)c1ccccc1,"inconclusive: 11.7 µM [inhibitor, partial curve, poor fit]",–
NC(=O)c1cc(NC(=O)CCCc2nc3ccccc3s2)cc(C(N)=O)c1,–,inactive: 0%
Cc1nc2sc(C(c3ccc(Cl)cc3)N3CC(C)OC(C)C3)c(O)n2n1 (configuration not stated),"inconclusive: 3.7 µM [inhibitor, full curve]",–
CCCn1c(N)c(C(c2ccc(OC)cc2)N2CCN(c3ccccc3)CC2)c(=O)[nH]c1=O (configuration not stated),"inconclusive: 9.28 µM [inhibitor, single point]",–

# The listing continues.

SMILES,Potency,"activity change, negative = inhibition"
CCOC(=O)c1ccc(-c2c(-c3ccc(OC)cc3)oc(=O)c3cc(OC)c(OC)cc23)cc1F,"inconclusive: 4.65 µM [inhibitor, partial curve, poor fit]",–
CCN(CC)C(=O)c1ccc(Nc2nnc(-c3ccc(O)cc3)c3ccccc23)cc1,–,inactive: 45.7%
O=C1c2ccc(-c3ccc(F)cc3OCc3ccccc3)cc2S(=O)(=O)c2cccc(C(=O)N3CCCC3)c21,"inconclusive: 1.47 µM [inhibitor, full curve]",–
CCOC(=O)N1CCN(S(=O)(=O)c2ccc3c(c2)C(C)C(=O)N3)CC1 (configuration not stated),"inconclusive: 5.22 µM [inhibitor, single point]",–
Cc1ccc(S(=O)(=O)N2CCN(C(=O)COc3ccc(NC(=O)c4ccco4)cc3)CC2)cc1,"inconclusive: 11.7 µM [inhibitor, partial curve, poor fit]",–
O=C(CCn1c(=O)oc2ccccc21)NC1=NCCS1,"inconclusive: 9.28 µM [inhibitor, partial curve, poor fit]",–
CCc1ccc2c(CN3CCN(S(=O)(=O)c4ccc5c(c4)OCCO5)CC3)cc(=O)oc2c1,"inconclusive: 9.28 µM [inhibitor, partial curve]",–
COC(=O)c1ccc(NC(=O)CSc2nnc(C)n2CC2CCCO2)cc1 (configuration not stated),"inconclusive: 6.57 µM [inhibitor, partial curve, poor fit]",–
O=C(O)C1C2c3ccccc3C(c3ccccc32)C1C(=O)Nc1ccccc1 (configuration not stated),"inconclusive: 14.7 µM [inhibitor, single point]",–
COc1ccc(-c2c(-c3ccc(OCC(=O)NN)cc3O)n[nH]c2C)cc1OC,"inconclusive: 1.17 µM [inhibitor, partial curve, poor fit]",–
CCCCn1c2nc3ccccc3nc2c2c(=O)n(C(C)CC)cnc21 (configuration not stated),–,inactive: 9.25%
O=C(Nc1ccccc1C(=O)O)c1cccc(NC(=O)c2ccco2)c1,–,inactive: 11.4%
C=CCNc1nc(C)c(CNc2c(C)cc(C)cc2C)nc1C#N,"inconclusive: 11.7 µM [inhibitor, single point]",–
Cn1c(=O)cc(SCC(=O)NCC2COc3ccccc3O2)c2ccccc21 (configuration not stated),active: 2.94 µM,–
Cc1ccc(C(=O)Nc2ccc3c(c2)OCO3)o1,–,inactive: 119%
CC1(C)NC(C(=O)O)Cc2c1[nH]c1ccccc21 (configuration not stated),–,inactive: -1.93%
CC(C)NC(=O)CN1C(=O)CSc2ccc(S(=O)(=O)N3CCCC3)cc21,"inconclusive: 18.5 µM [inhibitor, single point]",–
Cc1nn(CCCC(=O)Nc2cccnc2)c(C)c1[N+](=O)[O-],"inconclusive: 8.28 µM [inhibitor, partial curve]",–
N#C/C(=C(/O)CSc1ncn[nH]1)c1nc2ccccc2[nH]1,"inconclusive: 18.5 µM [inhibitor, single point]",–
CCc1ccc(NC(=O)CSc2nnc(CNC(=O)c3cccs3)o2)cc1,"inconclusive: 18.5 µM [inhibitor, single point]",–
CCC(C)Nc1nc2c(C)cccn2c(=O)c1C=Nc1ccc(OC)cc1 (configuration not stated),"inconclusive: 0.233 µM [inhibitor, partial curve, poor fit]",–
CCOc1ccc(-n2nnc3c(=O)n(C/C=C/c4ccccc4)cnc32)cc1,"inconclusive: 0.522 µM [inhibitor, full curve, poor fit]",–
O=C1CCc2cc(S(=O)(=O)NC(Cc3ccccc3)C(=O)NC3CCCC3)ccc2N1 (configuration not stated),"inconclusive: 20.8 µM [inhibitor, single point]",–
Cc1ccc(NC(=O)CSCC(=O)NCCc2ccccc2)cc1,–,inactive: 52.2%

SMILES,Potency,"activity change, negative = inhibition"
Cc1ccc(C2=NS(=O)(=O)N(C)C(C(=O)Nc3ccc4c(c3)OCO4)=C2)cc1,–,inactive: 5.13%
Cc1ccc(NC(=S)N(Cc2ccco2)C(C)c2cccs2)cc1 (configuration not stated),"inconclusive: 18.5 µM [inhibitor, single point]",–
CC(C)n1nc(C(=O)Nc2nc3ccccc3[nH]2)c2ccccc2c1=O,"inconclusive: 0.0047 µM [inhibitor, partial curve, poor fit]",–
CC(=O)c1c(C)[nH]c(C(=O)Nc2ccc3c(c2)OCCO3)c1C,–,inactive: -18.6%
COc1ccc(CCNC(=O)CCSc2nc(-c3ccco3)cc(C(F)(F)F)n2)cc1OC,"inconclusive: 9.28 µM [inhibitor, single point]",–
O=C1c2ccccc2C(=O)N1CCCc1c[nH]c2ccccc12,–,inactive: 57.2%
COc1ccc(S(=O)(=O)N2CCN(C(=O)COc3ccc(C)c(C)c3)CC2)cc1OC,–,inactive: 0.81%
Clc1ccc(-c2nc3ccccn3c2CN2CCCCC2)cc1,–,inactive: -28%
COc1ccc(OC)c(NC(=O)C2CCCN(S(=O)(=O)c3cccc4nonc34)C2)c1 (configuration not stated),"inconclusive: 11.7 µM [inhibitor, single point]",–
CN1CCN(CCCNC(=O)CCc2nnc3n(Cc4ccccc4Cl)c(=O)c4ccccc4n23)CC1,"inconclusive: 11.7 µM [inhibitor, single point]",–
O=C1CCC(C(=O)N2CCCCO2)CN1CCc1ccccc1 (configuration not stated),"inconclusive: 18.5 µM [inhibitor, single point]",–
O=C(CCCCCNc1nc(=S)[nH]c2ccccc12)NCCc1ccccc1,–,inactive: 0%
COc1ccc([N+](=O)[O-])cc1N(CC(O)CN1C(=O)NC(C)(C)C1=O)S(=O)(=O)c1ccccc1 (configuration not stated),active: 14.7 µM,–
COc1ccc(C(C)=O)cc1CSc1nnc(SCc2cc(C(C)=O)ccc2OC)s1,"inconclusive: 0.329 µM [inhibitor, full curve]",–
Cn1nccc1C(=O)OCC(=O)Nc1nc(-c2ccccc2)cs1,–,inactive: 23.7%
Cc1ccc(C(=O)NCC(=O)OCC(=O)Nc2cccc(S(=O)(=O)N3CCCC3)c2)cc1C,–,inactive: 32.5%
CCCNc1nc2ccccc2c(=O)[nH]1,"inconclusive: 18.5 µM [inhibitor, single point]",–
CN(C)CCN(Cc1ccccc1)c1nccc(N(C)C)c1C#N,"inconclusive: 13.1 µM [inhibitor, single point]",–
O=C(O)c1cccc(S(=O)(=O)NCc2cccs2)c1,–,inactive: 2.83%
CCOC(=O)c1ccc(NC(=O)C2C3C=CC(O3)C2C(=O)O)cc1 (configuration not stated),–,inactive: -7.05%
Cc1ccc(CNC(=O)C2CCN(c3nnc(N4CCCC4=O)s3)CC2)cc1,–,inactive: 72.3%
CNC(=O)CC1C(=O)N(C)C(=S)N1NC(=O)c1ccccc1 (configuration not stated),"inconclusive: 0.0037 µM [inhibitor, full curve, poor fit]",–
O=C(CCC1CCCC1)N1CCN(C(=O)C2CC2)CC1,"inconclusive: 10.4 µM [inhibitor, single point]",–
CCN(CC)CCCN(CC(=O)N(C)Cc1ccccc1)C(=O)c1ccc([N+](=O)[O-])cc1,"inconclusive: 10.4 µM [inhibitor, single point]",–

# Record cards, from the list above. Order of values: Potency	activity change, negative = inhibition
# COc1ccc(CCNC(=O)CCSc2nc(-c3ccco3)cc(C(F)(F)F)n2)cc1OC is entered as inconclusive: 9.28 µM [inhibitor, single point]	–
# CCCNc1nc2ccccc2c(=O)[nH]1 is entered as inconclusive: 18.5 µM [inhibitor, single point]	–
